# Inconclusive means that the source gave no clear call. Such entries were picked first, then a sample of the others. Potencies of inconclusive entries are doubtful fits and often do not repeat. The source made the active and inactive calls. Calls come from the whole dose curve; as a rule, active = well fitted curve in the direction sought with a large enough effect; inconclusive = small, poorly fitted or top-dose-only effect, or another doubt; inactive = no such curve, though single readings can be large; an effect the other way counts as inactive or inconclusive.
# What was measured:
# [1] = Quantitative High-Throughput drug screen in 47 multiple myeloma cell lines against the NCATS MIPE library collection: INA6_PLB cell viability assay (AID 1918965; note: nearly all actives have a fitted effect of over 55% in size); details: INA6 myeloma viability, CellTiter-Glo ATP luminescence, 48 h; viability (% of control): at 45.8 µM (top of the series)
# Method in brief: (§1)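 We plated 500 myeloma cells per well, pinned in MIPE 4.0 compounds, and incubated for 48 hours at 37C. ATP was then quantified with CellTiter-Glo, with DMSO and media-only wells defining 100% and 0%.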
# [2] = Quantitative High-Throughput drug screen in 47 multiple myeloma cell lines against the NCATS MIPE library collection: JJN3_DSMZ cell viability assay (AID 1918966; note: nearly all actives have a fitted effect of over 50% in size); details: JJN3 myeloma cells viability, CellTiter-Glo ATP, 48 h; viability, % of DMSO: at 45.8 µM (top of the series)
# Method in brief: (§2)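 Steps: seed 500 cells per well; pin-transfer MIPE 4.0 library; incubate 48 h at 37C, 5% CO2, humidified; add CellTiter-Glo, 5 min room temperature; read luminescence.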
# [3] = Quantitative High-Throughput drug screen in 47 multiple myeloma cell lines against the NCATS MIPE library collection: Karpas25_ECACC cell viability assay (AID 1918968; note: nearly all actives have a fitted effect of over 35% in size); details: Karpas25 myeloma viability, CellTiter-Glo ATP, 48 h; viability (% of control): at 45.8 µM (top of the series)
# Method in brief: as §2
# [4] = Quantitative High-Throughput drug screen in 47 multiple myeloma cell lines against the NCATS MIPE library collection: KMS27_JCRB cell viability assay (AID 1918970); details: KMS27 myeloma cells, CellTiter-Glo ATP viability, 48 h; viability (% of DMSO): at 45.8 µM (top of the series); note: nearly all actives have a fitted effect of over 30% in size
# Method in brief: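 CellTiter-Glo luminescence after 48 h drug exposure at 37 °C; 500 cells/well, 1536-well format, pin-tool compound addition; DMSO = 100%, media-only = 0% viability.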
# [5] = Quantitative High-Throughput drug screen in 47 multiple myeloma cell lines against the NCATS MIPE library collection: KMS20_JCRB cell viability assay (AID 1918973); details: CellTiter-Glo ATP, 48 h; viability (% of DMSO): at 45.8 µM (top of the series); note: nearly all actives have a fitted effect of over 45% in size
# Method in brief: as §2
# [6] = Quantitative High-Throughput drug screen in 47 multiple myeloma cell lines against the NCATS MIPE library collection: KMS21BM_JCRB cell viability assay (AID 1918974); details: ATP luminescence, 48 h; viability: at 45.8 µM (top of the series) unless noted
# Method in brief: as §2
# [7] = Quantitative High-Throughput drug screen in 47 multiple myeloma cell lines against the NCATS MIPE library collection: KMS26_JCRB cell viability assay (AID 1918975); details: KMS26 myeloma cells viability, CellTiter-Glo ATP, 48 h; viability (% of DMSO): at 45.8 µM (top of the series); note: nearly all actives have a fitted effect of over 45% in size
# Method in brief: as §1
# [8] = Quantitative High-Throughput drug screen in 47 multiple myeloma cell lines against the NCATS MIPE library collection: MMM1_PLB cell viability assay (AID 1918976); note: nearly all actives have a fitted effect of over 35% in size
# Method in brief: (§3)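 Plated at 500 cells per well, myeloma lines received MIPE 4.0 compounds by pin tool. Following 48 h culture at 37 °C, CellTiter-Glo luminescence gave viability relative to DMSO and media-only controls.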
# [9] = Quantitative High-Throughput drug screen in 47 multiple myeloma cell lines against the NCATS MIPE library collection: MOLP8_DSMZ cell viability assay (AID 1918977); details: MOLP8 myeloma viability, CellTiter-Glo ATP luminescence, 48 h; viability (% of control): at 45.8 µM (top of the series); note: nearly all actives have a fitted effect of over 45% in size
# Method in brief: as §3
# [10] = Quantitative High-Throughput drug screen in 47 multiple myeloma cell lines against the NCATS MIPE library collection: NCIH929_DSMZ cell viability assay (AID 1918978); note: nearly all actives have a fitted effect of over 35% in size
# Method in brief: as §3
# [11] = Quantitative High-Throughput drug screen in 47 multiple myeloma cell lines against the NCATS MIPE library collection: OCIMY1_PLB cell viability assay (AID 1918979); note: nearly all actives have a fitted effect of over 35% in size
# Method in brief: as §3
# [12] = Quantitative High-Throughput drug screen in 47 multiple myeloma cell lines against the NCATS MIPE library collection: MM1R_ATCC cell viability assay (AID 1918981); note: nearly all actives have a fitted effect of over 35% in size
# Method in brief: as §3
# [13] = Quantitative High-Throughput drug screen in 47 multiple myeloma cell lines against the NCATS MIPE library collection: LP1_DSMZ cell viability assay (AID 1918982); note: nearly all actives have a fitted effect of over 35% in size
# Method in brief: as §3
# [14] = Quantitative High-Throughput drug screen in 47 multiple myeloma cell lines against the NCATS MIPE library collection: KMS12BM_JCRB cell viability assay (AID 1918971); note: nearly all actives have a fitted effect of over 35% in size
# Method in brief: as §1
# [15] = Quantitative High-Throughput drug screen in 47 multiple myeloma cell lines against the NCATS MIPE library collection: MM1S_ATCC cell viability assay (AID 1918980); note: nearly all actives have a fitted effect of over 45% in size
# Method in brief: as §3
# [16] = Quantitative High-Throughput drug screen in 47 multiple myeloma cell lines against the NCATS MIPE library collection: KMS28PE_JCRB cell viability assay (AID 1918983); note: nearly all actives have a fitted effect of over 35% in size
# Method in brief: as §3
# [17] = Quantitative High-Throughput drug screen in 47 multiple myeloma cell lines against the NCATS MIPE library collection: H1112_PLB cell viability assay (AID 1918967; note: nearly all actives have a fitted effect of over 30% in size); details: H1112 myeloma cells viability, ATP luminescence, 48 h; viability: at 45.8 µM (top of the series)
# Method in brief: as §2
# [18] = Quantitative High-Throughput drug screen in 47 multiple myeloma cell lines against the NCATS MIPE library collection: KMS12PE_JCRB cell viability assay (AID 1918972); details: KMS12PE myeloma viability, CellTiter-Glo ATP, 48 h; viability: at 45.8 µM (top of the series); note: nearly all actives have a fitted effect of over 30% in size
# Method in brief: as §1
# Potency is the fitted concentration of half-maximal effect.
Compound,Potency [1],Potency [2],Potency [3],Potency [4],Potency [5],Potency [6],viability (% of DMSO) [7],Potency [8],Potency [9],Potency [10],Potency [11],Potency [12],Potency [13],Potency [14],Potency [15],Potency [16],Potency [17],Potency [7],Potency [18]
O=C1CCCC(=O)C1C(=O)c1ccc(C(F)(F)F)cc1[N+](=O)[O-],inactive,inactive,inactive,inactive,"inconclusive: 3.32 µM [cytotoxic, full curve, poor fit]","inconclusive: 20.9 µM [rising, partial curve]",inconclusive: 90.7% [cytotoxic],"inconclusive: 14.8 µM [cytotoxic, partial curve, poor fit]","inconclusive: 18.7 µM [cytotoxic, partial curve, poor fit]",inactive,inactive,inactive,,,,,,,
Cc1cn2c(-c3cn[nH]c3)cnc2c(Nc2ccc(C(=O)N3CCNCC3)cc2F)n1,,"inconclusive: 23.5 µM [cytotoxic, partial curve, poor fit]",,"inconclusive: 10.5 µM [cytotoxic, single point]",active: 18.7 µM,"inconclusive: 37.2 µM [rising, partial curve]",,,"inconclusive: 18.7 µM [cytotoxic, partial curve]",,"inconclusive: 16.6 µM [cytotoxic, partial curve]",,"inconclusive: 23.5 µM [cytotoxic, partial curve]",,,,,,
CO[C@H]1/C=C\O[C@@]2(C)Oc3c(C)c(O)c4c(O)c(c5c(nc6cc(C)ccn65)c4c3C2=O)NC(=O)C(C)=CC=C[C@H](C)[C@H](O)[C@@H](C)[C@@H](O)[C@@H](C)[C@H](OC(C)=O)[C@H]1C,"inconclusive: 29.6 µM [cytotoxic, single point]","inconclusive: 20.9 µM [cytotoxic, partial curve, poor fit]","inconclusive: 20.9 µM [cytotoxic, partial curve]",,"inconclusive: 0.0209 µM [cytotoxic, full curve, poor fit]","inconclusive: 26.4 µM [cytotoxic, partial curve, poor fit]",,,,"inconclusive: 13.2 µM [cytotoxic, partial curve, poor fit]",,"inconclusive: 14.8 µM [cytotoxic, partial curve, poor fit]",inactive,"inconclusive: 0.296 µM [cytotoxic, full curve, poor fit]","inconclusive: 13.2 µM [cytotoxic, partial curve, poor fit]","inconclusive: 16.6 µM [cytotoxic, partial curve, poor fit]",,,
CCCCCCCCCC(=O)N[C@@H](Cc1c[nH]c2ccccc12)C(=O)N[C@H](CC(N)=O)C(=O)N[C@@H](CC(=O)O)C(=O)N[C@@H]1C(=O)NCC(=O)N[C@@H](CCCN)C(=O)N[C@@H](CC(=O)O)C(=O)N[C@H](C)C(=O)N[C@@H](CC(=O)O)C(=O)NCC(=O)N[C@H](CO)C(=O)N[C@@H]([C@@H](C)CC(=O)O)C(=O)N[C@@H](CC(=O)c2ccccc2N)C(=O)O[C@@H]1C,inconclusive: 0.001 µM [cytotoxic],"inconclusive: 0.0166 µM [rising, full curve, poor fit]",,,"inconclusive: 0.0037 µM [cytotoxic, full curve, poor fit]",,,"inconclusive: 0.0935 µM [rising, full curve]",inactive,,,,"inconclusive: 0.0093 µM [rising, full curve, poor fit]",inactive,"inconclusive: 0.0074 µM [rising, full curve, poor fit]",,"inconclusive: 0.0148 µM [rising, full curve, poor fit]","inconclusive: 9.35 µM [rising, single point]",
CNC(=O)c1ccc2cc(C3(O)CCn4cncc43)ccc2c1 (stereo not drawn),"inconclusive: 23.5 µM [cytotoxic, single point]",inactive,"inconclusive: 0.003 µM [cytotoxic, full curve, poor fit]","inconclusive: 0.0017 µM [cytotoxic, full curve, poor fit]",,"inconclusive: 33.2 µM [rising, partial curve]",,"inconclusive: 4.18 µM [cytotoxic, full curve, poor fit]","inconclusive: 0.0013 µM [rising, full curve, poor fit]",,inactive,,inactive,inactive,"inconclusive: 1.66 µM [cytotoxic, partial curve, poor fit]",inactive,inactive,,inactive
CC(C)(C)c1cc(C(=O)O)c(NC(=O)Nc2ccc3[nH]ncc3c2)s1,inactive,"inconclusive: 3.72 µM [cytotoxic, partial curve, poor fit]","inconclusive: 13.2 µM [cytotoxic, single point]",,"inconclusive: 2.96 µM [cytotoxic, full curve, poor fit]","inconclusive: 8.33 µM [rising, full curve, poor fit]",,inactive,"inconclusive: 20.9 µM [cytotoxic, single point]","inconclusive: 20.9 µM [cytotoxic, partial curve]","inconclusive: 10.5 µM [cytotoxic, partial curve, poor fit]",,inactive,"inconclusive: 0.0012 µM [rising, full curve, poor fit]",,"inconclusive: 10.5 µM [cytotoxic, partial curve, poor fit]",,inactive,"inconclusive: 0.0148 µM [cytotoxic, full curve, poor fit]"
CCOC(=O)C1=C(N)Oc2ccc(Br)cc2C1C(C#N)C(=O)OCC (stereo not drawn),,active: 20.9 µM,,,"inconclusive: 5.26 µM [cytotoxic, partial curve, poor fit]","inconclusive: 13.2 µM [cytotoxic, partial curve, poor fit]",,,,,"inconclusive: 33.2 µM [cytotoxic, single point]",,"inconclusive: 33.2 µM [cytotoxic, single point]",,active: 16.6 µM,,,,
O=C(NCc1ccncc1)C12C[C@H]3C[C@@H](C1)CC(c1ccc(Cl)cc1)(C3)C2,,"inconclusive: 18.7 µM [cytotoxic, partial curve, poor fit]",,active: 8.33 µM,"inconclusive: 23.5 µM [cytotoxic, partial curve, poor fit]",active: 13.2 µM,,,"inconclusive: 37.2 µM [cytotoxic, partial curve, poor fit]",,"inconclusive: 0.0019 µM [cytotoxic, full curve, poor fit]",active: 18.7 µM,"inconclusive: 37.2 µM [cytotoxic, single point]",,,,,"inconclusive: 11.8 µM [cytotoxic, partial curve, poor fit]",
CN(CCOc1ccc(NS(C)(=O)=O)cc1)CCc1ccc(NS(C)(=O)=O)cc1,,inactive,,"inconclusive: 5.9 µM [cytotoxic, partial curve, poor fit]","inconclusive: 0.0526 µM [cytotoxic, full curve, poor fit]",,,,inactive,,,,inactive,"inconclusive: 0.0264 µM [rising, full curve, poor fit]","inconclusive: 29.6 µM [cytotoxic, single point]",,"inconclusive: 0.0033 µM [rising, full curve, poor fit]",,
Cn1cnc2c(F)c(Nc3ccc(Br)cc3Cl)c(C(=O)NOCCO)cc21,,"inconclusive: 4.69 µM [cytotoxic, partial curve, poor fit]",,active: 0.469 µM,,active: 0.105 µM,,"inconclusive: 9.35 µM [cytotoxic, partial curve, poor fit]","inconclusive: 0.833 µM [cytotoxic, full curve]",,,,inconclusive: 0.001 µM [cytotoxic],"inconclusive: 7.43 µM [cytotoxic, full curve, poor fit]",,,active: 0.662 µM,active: 7.43 µM,
O=C1c2c(O)cc(O)cc2OC(c2ccc(O)c(O)c2)C1O (stereo not drawn),inactive,"inconclusive: 37.2 µM [cytotoxic, single point]",,"inconclusive: 8.33 µM [cytotoxic, full curve, poor fit]","inconclusive: 1.48 µM [cytotoxic, partial curve, poor fit]","inconclusive: 29.6 µM [rising, partial curve, poor fit]",,"inconclusive: 0.0372 µM [rising, full curve]",inactive,inactive,,"inconclusive: 1.18 µM [rising, partial curve, poor fit]",inactive,"inconclusive: 0.166 µM [rising, full curve, poor fit]","inconclusive: 23.5 µM [cytotoxic, single point]","inconclusive: 0.0012 µM [rising, full curve]",inactive,inactive,
CN1N=C(N)c2cn([C@@H]3O[C@H](COP(=O)(O)O)[C@@H](O)[C@@H]3O)c3ncnc1c23,"inconclusive: 0.166 µM [cytotoxic, full curve, poor fit]",,,active: 0.0662 µM,,"inconclusive: 16.6 µM [cytotoxic, partial curve, poor fit]",,,,,"inconclusive: 13.2 µM [cytotoxic, partial curve, poor fit]",,"inconclusive: 0.526 µM [cytotoxic, full curve, poor fit]",active: 6.62 µM,,,active: 0.526 µM,,"inconclusive: 0.0418 µM [cytotoxic, full curve]"

# Source: PubChem BioAssay (NCATS)
